Results reported in PMC6146376 (Chemical Communications (Cambridge, England), 2018).
HELM strings list residues between dots; [ac] is acetyl, [am] amide, other brackets name non-standard units.

Experiment: general procedure: Fmoc solid-phase peptide synthesis; 2-chlorotrityl (2CT) resin preloaded with Ala (0.6 mmol/g); HATU/DIPEA
Details: whole synthesis, overall, scale of the general procedure 0.1 mmol
Work on Oct-TriA1 (5-D-Agl, 9-Agl) yielded an isolated yield of 6%. In the case of “PEPTIDE1{[Oct].[dV].[D-Dab].G.[dS].[D-Sac].S.[Dab].[D-Dab].[Sac].E.V.[D-aIle].A}$$$$V2.0”, the isolated yield is reported as 4%. Work on “PEPTIDE1{[Oct].[dV].[D-Dab].G.[dS].[dC].S.[Dab].[D-Dab].C.E.V.[D-aIle].A}$$$$V2.0” yielded an isolated yield of 18%. Substance “PEPTIDE1{[Oct].[dV].[D-Dab].G.[dS].[dC].S.[Dab].[D-Dab].C.E.V.[D-aIle].A}$PEPTIDE1,PEPTIDE1,6:R3-10:R3$$$V2.0” has an isolated yield of 6%. Substance “PEPTIDE1{[Oct].[dV].[D-Dab].G.[dS].[dC].S.[Dab].[D-Dab].C.E.V.[D-aIle].A}|CHEM1{[Biphenyl44]}$PEPTIDE1,CHEM1,6:R3-1:R1|PEPTIDE1,CHEM1,10:R3-1:R2$$$V2.0” has an isolated yield of 5%. With “PEPTIDE1{[Oct].[dV].[D-Dab].G.[dS].[dC].S.[Dab].[D-Dab].C.E.V.[D-aIle].A}|CHEM1{[mXyl]}$PEPTIDE1,CHEM1,6:R3-1:R1|PEPTIDE1,CHEM1,10:R3-1:R2$$$V2.0” the isolated yield was 50%. “PEPTIDE1{[Oct].[dV].[D-Dab].G.[dS].[dC].S.[Dab].[D-Dab].C.E.V.[D-aIle].A}|CHEM1{[oXyl]}$PEPTIDE1,CHEM1,6:R3-1:R1|PEPTIDE1,CHEM1,10:R3-1:R2$$$V2.0” showed an isolated yield of 14%. “PEPTIDE1{[Oct].[dV].[D-Dab].G.[dS].[dC].S.[Dab].[D-Dab].C.E.V.[D-aIle].A}|CHEM1{[pXyl]}$PEPTIDE1,CHEM1,6:R3-1:R1|PEPTIDE1,CHEM1,10:R3-1:R2$$$V2.0” gave an isolated yield of 23%. “PEPTIDE1{[Oct].[dV].[D-Dab].G.[dS].[dW].S.[Dab].[D-Dab].F.E.V.[D-aIle].A}$$$$V2.0” gave an isolated yield of 11%.
